In patent US20070074295A1 (priority 2000, published 2007):
At least one structure is not confirmed: it was looked up by name or label, or the drawing left a doubt.

How the values were obtained:
CIRL2 variant AB mRNA = assay: Semi-quantitative RT-PCR, prefrontal cortex, chronic PCP and antipsychotic treatment; type: in vivo, rat; details: chronic PCP plus antipsychotic
Method: FIG. 15 illustrates the level of CIRL2 variant AB mRNA present in the prefrontal cortex of rat brain following chronic PCP and antipsychotic treatment (n=12 for all groups apart from veh-veh where n=11). […] and […] (SEQ ID NOS: 27-28) were the primer sequences used to amplify this product.
(§1) RT-PCR for specific isoforms of CIRL was then conducted in the prefrontal cortex.
(§2) 1 ml of lysis buffer (Qiagen), including 1% β-mercaptoethanol, was added to approximately 50-100 mg of brain tissue. Tissue samples were homogenised using a ribolyser (Hybaid) with 3 bursts at 6.5 g lasting 20 seconds each. Samples were then spun at room temperature in a microfuge for 3 minutes. The supernatant was removed and re-spun for a further 3 minutes. The supernatant was decanted to a fresh tube to which an equal volume of 70% ethanol was added. The remaining RNA isolation procedure was carried out according to the manufacturer's protocol (Qiagen).
(§3) Synthesis of cDNA was carried out according to manufacturers protocols (Life Technologies). Briefly 3-5μg of total RNA was reverse transcribed using oligo dT priming. After cDNA synthesis, samples were aliquoted and stored at −70° C. […]
(§4) Alterations in expression levels were determined by semi-quantitative PCR. […] Samples were removed over 4 consecutive cycles, however, the first cycle to be removed sometimes varied depending on when logarithmic amplification was detected. […]

CIRL3 variant AA mRNA = assay: as above; type: in vivo, rat; details: chronic PCP plus antipsychotic
Method: FIG. 16 illustrates the level of CIRL3 variant AA mRNA present in the prefrontal cortex of rat brain following chronic PCP and antipsychotic treatment (n=12 for all groups apart from veh-veh where n=11) […] and […] (SEQ ID NOS: 29-30) were the primer sequences used to amplify this product.
as §1, §2, §3, §4

CN1CCN(C2=Nc3cc(Cl)ccc3Nc3ccccc32)CC1 [clozapine]
effect on PCP-induced reductions in CIRL2 (CIRL2 variant AB mRNA): reversed
effect on PCP-induced reductions in CIRL3 (CIRL3 variant AA mRNA): reversed
